# Reference: PubChem BioAssay AID1347076 (National Center for Advancing Translational Sciences (NCATS), 2019)
# Values joined by “and” are separate entries in the source; they are usually repeats but may differ in a detail not shown here. Identical values can stand only once. Screen size: about 400,000 compounds; about 13,000 (3.2%) were called active. The shares of active, inactive and inconclusive entries below differ from those in the screen. Calls come from the whole dose curve; as a rule, active = well fitted cell-killing curve with a large enough effect; inconclusive = small, poorly fitted or top-dose-only effect, or effect the other way; inactive = flat fitted curve, though single readings scatter. A potency beside an inconclusive call is a rough fit, not a confirmed value.
# Experiment: qHTS assay for MDR1-selective chemotherapeutics: Primary screen using the drug-selected MDR subline cells KB-V1; note: nearly all actives have a fitted effect of over 60% in size
# Conditions: KB-V1 MDR cells viability, CellTiter-Glo, 72 h; series mostly up to 46.1 µM
# Method in brief: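 In this primary screen, KB-V1 cells overexpressing P-gp are incubated with library compounds (lowest to highest concentration) for 72 h at 37 degrees C before a luminescent ATP viability read.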
# Potency is the fitted concentration of half-maximal effect.
row,Structure (SMILES),Potency
1,Cc1c(C(c2cc3c(cc2Br)OCO3)c2c(C)n(C)n(-c3ccccc3)c2=O)c(=O)n(-c2ccccc2)n1C,"inconclusive: 10.3 µM [cytotoxic, partial curve, poor fit]"
2,C=C[C@@H]1c2ccccc2N(S(=O)(=O)c2ccc(C)cc2)[C@H](c2ccc(OC(C)=O)cc2)C1(C#N)C#N,"inconclusive: 651 nM [cytotoxic, full curve, poor fit] and inconclusive: 29.1 µM [cytotoxic, single point]"
3,CN1CCN(c2ccc(Cl)cc2NC(=O)c2ccc(S(=O)(=O)N3CCCCCC3)cc2)CC1,"inconclusive: 20.6 µM [cytotoxic, single point]"
4,Cc1ccc(-c2nn(-c3ccccc3)cc2/C=N/NS(=O)(=O)c2ccccc2)cc1,"inconclusive: 18.4 µM [cytotoxic, single point]"
5,CCOC(=O)c1nnn(-c2nonc2OC)c1-c1ccccc1,"inconclusive: 29.1 µM [cytotoxic, partial curve, poor fit]"
6,CCC(CC)C(=O)Nc1cc(C(=O)NCCc2ccccc2)ccc1Cl,"inconclusive: 14.6 µM [cytotoxic, partial curve]"
7,O=S(=O)(c1ccc(Cl)cc1)c1nnn2c1nc(N1CCCCC1)c1sccc12,inactive
8,O=C(CSc1nc(O)c(Cc2ccccc2)c(=O)[nH]1)c1ccccc1,inactive
9,CSCC(C)N1CCC(n2nccc2NC(=O)c2ccc3c(c2)OCO3)CC1 (stereo unspecified),"inconclusive: 3.26 µM [rising, full curve, poor fit]"
10,C#CCOCCOCCOCCNc1nc(OC)nc(N2CCN(C(=O)[C@H](CCC(=O)O)n3cc(C(N)CO)nn3)CC2)n1 (stereo partly specified),"inconclusive: 0.461 µM [rising, single point]"
11,Cc1ccccc1NC(=O)CN(c1ccc(Cl)cc1Cl)S(=O)(=O)c1ccccc1,inactive
12,COc1ccccc1OCc1ccc(C(=O)N2N=C(C(F)F)CC2(O)C(F)F)o1 (stereo unspecified),active: 16.4 µM
13,COc1ccc(NS(=O)(=O)c2cc(NC(=O)C3CC3)ccc2N2CCCCC2)cc1,"inconclusive: 18.4 µM [cytotoxic, single point]"
14,O=C(NNc1c2ccccc2nc2ccccc12)c1ccc(O)cc1,inactive
15,Cc1ccccc1NS(=O)(=O)c1cccc2nsnc12,inactive
16,O=C(Nc1ccc2c(c1)C(=O)N(CC1CCCO1)C2=O)c1ccc(Cl)c(Cl)c1 (stereo unspecified),active: 20.6 µM
17,Cc1cccc(NC(=O)N2CCC(CN3CCOCC3)CC2)c1C,inactive
18,CN(Cc1c(F)cccc1Cl)C(=O)CNC(=O)c1ccc2c(c1)OCO2,"inconclusive: 18.4 µM [cytotoxic, single point]"
19,COc1cccc(S(=O)(=O)Nc2ccc3c(c2)OCCO3)c1,"inconclusive: 16.4 µM [cytotoxic, single point]"
20,COc1ccccc1Nc1nnc(SCC(=O)NC2CC2)s1,inactive
21,Cc1cn(C)c(CC(=O)N2CCN(c3ccccc3F)CC2)c1C(=O)O,inactive
22,CC(Oc1cccc(Cl)c1)C(=O)Nc1ccc(N2CCOCC2)cc1N1CCOCC1 (stereo unspecified),active: 16.4 µM
23,COC(=O)c1sccc1NC(=O)c1cc(-c2cc(C)ccc2C)nc2ccccc12,"inconclusive: 29.1 µM [cytotoxic, single point]"

row,Structure (SMILES),Potency
1,CC(=O)c1c(C)[nH]c(C(=O)CN2C(=O)NC(C)(CCC(C)C)C2=O)c1C (stereo unspecified),"inconclusive: 29.1 µM [cytotoxic, single point]"
2,COc1cc(C(=O)Nc2ccc3c(c2)ncn3C)cc(OC)c1OC,"inconclusive: 29.1 µM [cytotoxic, single point]"
3,Cc1ccc(Cc2nc3ccccc3nc2SCC(=O)N2CCCCC2C)cc1 (stereo unspecified),inactive
4,N#Cc1cccc(C(=O)Nc2cc(S(=O)(=O)N3CCOCC3)ccc2N2CCCC2)c1,inactive
5,CCOC(=O)Cc1nnc(NC(=O)COc2ccc(F)cc2)s1,"inconclusive: 18.4 µM [cytotoxic, single point]"
6,CS(=O)(=O)N(Cc1ccc(Cl)cc1)c1ccc(C(=O)Nc2cccnc2)cc1,active: 20.6 µM
7,O=c1oc2ccccc2n1Cc1cccc(C(F)(F)F)c1,inactive
8,CN(C)S(=O)(=O)N1CCC(Oc2ccc(C(=O)NC3Cc4ccccc4C3)cc2)CC1,"inconclusive: 29.1 µM [cytotoxic, single point]"
9,O=C(NCCc1csc(-c2cccnc2)n1)c1ccc(F)c(F)c1,active: 13 µM
10,CC1CC(=O)N(c2ccc(C(C)C)cc2)C(=O)C1,inactive
11,Cc1ccc(NC(=O)CN2C(=O)COc3ccc(C)cc32)nc1,active: 14.6 µM
12,CCOC(=O)N1CCN(C(=O)CN(C)S(=O)(=O)c2ccc(OCC)cc2)CC1,"inconclusive: 1.84 µM [cytotoxic, full curve]"
13,COc1ccc(N2CCN(C(=O)CS(=O)(=O)c3cccc4nsnc34)CC2)cc1,"inconclusive: 0.82 µM [cytotoxic, full curve, poor fit]"
14,CCc1ccc(CCC(=O)N2CCN(S(=O)(=O)c3ccc(Br)cc3)CC2)cc1,"inconclusive: 16.4 µM [cytotoxic, partial curve]"
15,CCCOc1ccc(S(=O)(=O)NCCCN2CCOCC2)c2ccccc12,inactive
16,C=C(C)COc1ccc(-c2nc(N)ncc2-c2ccc(Br)cc2)c(O)c1,"inconclusive: 29.1 µM [cytotoxic, single point]"
17,Cc1nn(C2CC(O)C(O)C(CO)O2)c(=O)[nH]c1=O (stereo unspecified),inactive
18,CCCCCC1CCC(c2n[nH]c(=S)n2C)CC1 (stereo unspecified),inactive
19,O=S(=O)(c1cccc(F)c1)N1CCN(Cc2cc3c(cc2Br)OCCO3)CC1,inactive
20,COc1cccc(N2CCN(S(=O)(=O)c3ccc4c(c3)CCCN4C(C)=O)CC2)c1,"inconclusive: 16.4 µM [cytotoxic, single point]"
21,O=C(CN1C(=O)NC2(CCCC2)C1=O)NNC(=O)c1ccccc1,inactive
22,COc1ccc(-c2nnc(N3CCC(C)CC3)c3ccccc23)cc1,"inconclusive: 7.31 µM [cytotoxic, partial curve]"
23,Cc1ccc(C)c(NC(=O)CN(C)C(=O)C2CCN(S(=O)(=O)c3ccc4c(c3)OCCO4)CC2)c1,"inconclusive: 18.4 µM [cytotoxic, partial curve, poor fit]"
